For at least one compound, name, drawing or mass did not settle the structure.
Columns and labels:
[1] = SmartCube diagonal index (DD) similarity ranking and psychedelic profile; type: in vivo; details: validation analysis, 90 reference drugs
[2] = pEEG deep learning drug class classifier; type: in vivo; details: classifier trained with a set that did not include the drug, FIG. 25
[3] = test system: TG4510 model of Alzheimer's Disease; test: DRFA analysis of the TG4510 model of Alzheimer's Disease; type: in vivo, mouse
[4] = DBSA query with scopolamine target signature; type: in vivo; details: FIG. 60
Excerpt: In some embodiments, illustrative computing devices of the present disclosure can be programmed with one or more techniques of the present disclosure to identify a novel cognitive enhancer compound by querying a large library of compounds profiled in by a behavioral platform. This example is based on a hypothesis that compounds with a drug-induced behavioral data profile that is reversed to that of scopolamine, which impairs cognition, are potentially cognitive enhancers. Other ways to impair cognition, such as other drugs or genetic manipulations, can be used to generate similar hypotheses.
The target signature was used to query a library of list signatures associated with active library and reference compounds to rank the compounds by their capacity to reverse the behavioral response to scopolamine.

[5] = pEEG spectral power signature; type: in vivo; details: 2-h post-injection, normalized against baseline, different doses, FIG. 21
Procedure: In some embodiments, pEEG may be recorded 1 hour before drug administration and for 2 hours after drug administration from all recorded brain regions simultaneously. To maximize the clinical translatability of a pEEG preclinical database, the frontal cortex and parietal cortex can be selected without limitation. ECoG EEG from these electrodes may be shown to offer direct rodent-to-human translation. Additionally, the hippocampus and striatum can be targeted for indwelling local field potential (LFP) recordings to investigate pharmacological responses on brain regions known to be innervated by different neurotransmitter systems.
In some embodiments, pEEG data consumed by a behavioral platform classier or other machine learning model can be processed first to remove artifacts. […] The average standard frequency bands are shown in Table IV listing the analyzed standard frequency bands. […]
In some embodiments, a normalization against the baseline pre-drug may be convenient, although other types of normalization may be used without limitation. pEEG and accelerometer spectrums can be normalized to the corresponding mean value x_mean during the pre-dosing interval [0, 1 hour](baseline): x_norm=(x−x_mean)/x_mean. For both pEEG and accelerometer data, the post-dosing features (obtained during the 2-hour post-dosing period) can be expressed as percent change from pre-dose baseline. […]

[6] = test system: TSC1 mouse Model of Tuberous Sclerosis Complex; test: DRFA analysis of the TSC1 mouse Model of Tuberous Sclerosis Complex in SmartCube; type: in vivo

CN(C)CCCC1(c2ccc(F)cc2)OCc2cc(C#N)ccc21 (centres unmarked) [citalopram]
top two predictions by diagonal index [1]: sertraline and escitalopram
therapeutic class signature by pEEG classifier [2]: clean antidepressant signal

C[C@H]1c2cccc(O)c2C(=O)C2=C(O)[C@]3(O)C(=O)C(C(N)=O)=C(O)[C@@H](N(C)C)[C@@H]3[C@@H](O)[C@@H]21 [doxycycline]
rescue of disease phenotype in DRFA space ([3]; TG4510 treated with doxycycline, FIG. 51): rescues the phenotype of the model
non-disease specific (Other Effect) treatment effect in DRFA space ([3]; in both the Model and the Control): minor, non-disease specific effect

COc1ccc2c3c1O[C@H]1C[C@@H](O)C=C[C@@]31CCN(C)C2 [galantamine]
DBSA reverse list signature to scopolamine target signature [4]: among the top reverse list signature predictions

CN(C)CCc1c[nH]c2cccc(OP(=O)(O)O)c12 [psilocybin]
change in pEEG power of high frequencies (gamma) [5]: longer-term inhibition

CO[C@H]1C[C@@H]2CC[C@@H](C)[C@@](O)(O2)C(=O)C(=O)N2CCCC[C@H]2C(=O)O[C@H]([C@H](C)C[C@@H]2CC[C@@H](O)[C@H](OC)C2)CC(=O)[C@H](C)/C=C(\C)[C@@H](O)[C@@H](OC)C(=O)[C@H](C)C[C@H](C)/C=C/C=C/C=C/1C [rapamycin]
rescue of disease phenotype in DRFA space ([6]; 3 mg/kg intraperitoneally 3 times/week from postnatal day 10, tested postnatal day 24, FIG. 52): rescued the Model
non-disease specific treatment effect in DRFA space ([6]; 3 mg/kg, in both the Model and the Control): minor, non-TSA specific effect

— patent US20250062040A1, “COMPUTER-BASED SYSTEMS FOR ACQUIRING AND ANALYZING OBS[…] DATA” (priority 2021, published 2025)
